Assay results from article PMC5492163.

Amino acid sequences for entries named in this document (tags omitted). A change or cut given only in a name is not applied to a line headed by its entry. Chains listed by the source or under a name are the forms on record and can include a tag or linker. Residues count along the entry.
UniProt Q80YA9: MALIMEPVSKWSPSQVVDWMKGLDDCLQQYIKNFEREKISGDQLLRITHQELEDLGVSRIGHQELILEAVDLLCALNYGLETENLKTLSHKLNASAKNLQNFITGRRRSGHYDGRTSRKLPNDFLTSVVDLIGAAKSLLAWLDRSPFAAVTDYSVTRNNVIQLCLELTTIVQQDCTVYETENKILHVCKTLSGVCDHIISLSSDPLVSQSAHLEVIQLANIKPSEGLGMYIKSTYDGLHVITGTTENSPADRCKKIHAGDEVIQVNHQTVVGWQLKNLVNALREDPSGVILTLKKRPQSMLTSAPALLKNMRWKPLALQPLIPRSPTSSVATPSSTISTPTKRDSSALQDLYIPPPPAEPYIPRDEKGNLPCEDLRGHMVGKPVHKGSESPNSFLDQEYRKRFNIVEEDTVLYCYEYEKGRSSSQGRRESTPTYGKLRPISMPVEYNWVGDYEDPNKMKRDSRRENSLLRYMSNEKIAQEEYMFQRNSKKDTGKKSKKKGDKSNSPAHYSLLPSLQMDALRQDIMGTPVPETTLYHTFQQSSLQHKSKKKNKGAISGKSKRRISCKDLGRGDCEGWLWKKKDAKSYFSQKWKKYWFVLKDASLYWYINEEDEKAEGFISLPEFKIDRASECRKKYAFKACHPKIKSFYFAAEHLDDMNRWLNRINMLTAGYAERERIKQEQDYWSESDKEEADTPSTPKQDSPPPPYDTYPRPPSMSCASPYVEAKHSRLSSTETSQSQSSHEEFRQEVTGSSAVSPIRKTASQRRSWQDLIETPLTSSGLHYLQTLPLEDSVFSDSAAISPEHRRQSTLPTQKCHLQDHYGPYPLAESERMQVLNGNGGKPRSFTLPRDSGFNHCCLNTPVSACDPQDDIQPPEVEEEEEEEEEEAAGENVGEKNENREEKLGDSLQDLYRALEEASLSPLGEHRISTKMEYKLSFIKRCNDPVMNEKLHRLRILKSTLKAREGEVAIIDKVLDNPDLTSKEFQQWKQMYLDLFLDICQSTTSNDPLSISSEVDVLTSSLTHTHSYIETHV
UniProt P97445: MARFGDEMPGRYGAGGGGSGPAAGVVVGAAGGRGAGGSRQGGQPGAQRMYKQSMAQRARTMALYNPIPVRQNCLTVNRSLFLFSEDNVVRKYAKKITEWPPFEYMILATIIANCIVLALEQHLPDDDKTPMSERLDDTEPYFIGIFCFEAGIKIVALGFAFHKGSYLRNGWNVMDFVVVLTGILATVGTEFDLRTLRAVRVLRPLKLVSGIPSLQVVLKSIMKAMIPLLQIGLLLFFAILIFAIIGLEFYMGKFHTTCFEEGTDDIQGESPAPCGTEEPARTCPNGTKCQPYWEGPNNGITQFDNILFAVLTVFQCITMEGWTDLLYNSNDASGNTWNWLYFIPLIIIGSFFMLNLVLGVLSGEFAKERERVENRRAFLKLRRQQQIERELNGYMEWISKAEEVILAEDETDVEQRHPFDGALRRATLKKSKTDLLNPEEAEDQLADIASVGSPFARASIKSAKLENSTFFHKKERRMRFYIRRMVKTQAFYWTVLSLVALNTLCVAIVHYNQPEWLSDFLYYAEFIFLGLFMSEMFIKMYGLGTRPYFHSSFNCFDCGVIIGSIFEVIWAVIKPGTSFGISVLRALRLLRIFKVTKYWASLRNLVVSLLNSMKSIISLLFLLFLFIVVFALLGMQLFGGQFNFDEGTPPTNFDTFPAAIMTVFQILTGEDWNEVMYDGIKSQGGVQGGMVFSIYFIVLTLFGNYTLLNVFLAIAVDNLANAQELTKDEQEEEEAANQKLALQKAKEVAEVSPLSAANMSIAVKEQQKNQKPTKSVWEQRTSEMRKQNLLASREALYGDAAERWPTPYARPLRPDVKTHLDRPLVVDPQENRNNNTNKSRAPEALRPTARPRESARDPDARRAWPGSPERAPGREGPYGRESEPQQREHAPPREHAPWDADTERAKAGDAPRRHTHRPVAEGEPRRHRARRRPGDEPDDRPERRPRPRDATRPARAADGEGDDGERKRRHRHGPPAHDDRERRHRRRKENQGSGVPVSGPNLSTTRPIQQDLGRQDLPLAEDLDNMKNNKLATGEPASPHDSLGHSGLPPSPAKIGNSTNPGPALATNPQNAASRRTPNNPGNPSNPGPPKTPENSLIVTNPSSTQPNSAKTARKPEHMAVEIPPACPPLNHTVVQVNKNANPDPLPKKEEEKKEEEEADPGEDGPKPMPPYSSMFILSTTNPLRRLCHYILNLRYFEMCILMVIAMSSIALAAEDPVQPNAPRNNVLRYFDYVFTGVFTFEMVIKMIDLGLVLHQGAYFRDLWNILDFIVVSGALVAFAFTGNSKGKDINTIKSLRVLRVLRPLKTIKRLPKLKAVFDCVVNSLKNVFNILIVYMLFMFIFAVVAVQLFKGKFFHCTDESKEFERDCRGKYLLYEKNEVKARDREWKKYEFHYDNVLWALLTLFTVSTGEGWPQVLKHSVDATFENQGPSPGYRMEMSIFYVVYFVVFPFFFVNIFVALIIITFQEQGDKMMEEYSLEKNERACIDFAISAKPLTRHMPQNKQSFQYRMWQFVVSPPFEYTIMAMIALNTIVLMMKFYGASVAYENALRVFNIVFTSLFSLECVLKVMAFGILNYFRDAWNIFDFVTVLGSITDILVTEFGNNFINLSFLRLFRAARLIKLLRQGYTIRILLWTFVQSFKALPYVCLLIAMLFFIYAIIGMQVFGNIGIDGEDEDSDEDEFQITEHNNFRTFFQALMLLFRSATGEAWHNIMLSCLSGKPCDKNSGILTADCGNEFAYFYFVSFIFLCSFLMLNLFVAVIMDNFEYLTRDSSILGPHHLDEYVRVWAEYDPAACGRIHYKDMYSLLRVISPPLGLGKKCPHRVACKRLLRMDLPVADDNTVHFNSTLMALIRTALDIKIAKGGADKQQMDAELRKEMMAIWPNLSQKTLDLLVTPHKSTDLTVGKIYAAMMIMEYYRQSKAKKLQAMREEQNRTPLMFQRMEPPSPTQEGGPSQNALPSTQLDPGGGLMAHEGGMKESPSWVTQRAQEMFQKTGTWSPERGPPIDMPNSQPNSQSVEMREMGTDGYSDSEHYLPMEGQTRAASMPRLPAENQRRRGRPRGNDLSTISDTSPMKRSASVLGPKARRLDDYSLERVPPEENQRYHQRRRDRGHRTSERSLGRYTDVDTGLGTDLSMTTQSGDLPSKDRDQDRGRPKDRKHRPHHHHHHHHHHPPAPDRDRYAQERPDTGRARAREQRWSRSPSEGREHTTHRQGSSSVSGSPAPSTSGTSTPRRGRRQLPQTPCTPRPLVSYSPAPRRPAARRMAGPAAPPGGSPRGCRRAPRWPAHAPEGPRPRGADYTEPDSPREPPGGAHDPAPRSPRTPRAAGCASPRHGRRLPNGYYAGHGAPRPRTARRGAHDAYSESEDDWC
Citron-N (P49025-3, form named): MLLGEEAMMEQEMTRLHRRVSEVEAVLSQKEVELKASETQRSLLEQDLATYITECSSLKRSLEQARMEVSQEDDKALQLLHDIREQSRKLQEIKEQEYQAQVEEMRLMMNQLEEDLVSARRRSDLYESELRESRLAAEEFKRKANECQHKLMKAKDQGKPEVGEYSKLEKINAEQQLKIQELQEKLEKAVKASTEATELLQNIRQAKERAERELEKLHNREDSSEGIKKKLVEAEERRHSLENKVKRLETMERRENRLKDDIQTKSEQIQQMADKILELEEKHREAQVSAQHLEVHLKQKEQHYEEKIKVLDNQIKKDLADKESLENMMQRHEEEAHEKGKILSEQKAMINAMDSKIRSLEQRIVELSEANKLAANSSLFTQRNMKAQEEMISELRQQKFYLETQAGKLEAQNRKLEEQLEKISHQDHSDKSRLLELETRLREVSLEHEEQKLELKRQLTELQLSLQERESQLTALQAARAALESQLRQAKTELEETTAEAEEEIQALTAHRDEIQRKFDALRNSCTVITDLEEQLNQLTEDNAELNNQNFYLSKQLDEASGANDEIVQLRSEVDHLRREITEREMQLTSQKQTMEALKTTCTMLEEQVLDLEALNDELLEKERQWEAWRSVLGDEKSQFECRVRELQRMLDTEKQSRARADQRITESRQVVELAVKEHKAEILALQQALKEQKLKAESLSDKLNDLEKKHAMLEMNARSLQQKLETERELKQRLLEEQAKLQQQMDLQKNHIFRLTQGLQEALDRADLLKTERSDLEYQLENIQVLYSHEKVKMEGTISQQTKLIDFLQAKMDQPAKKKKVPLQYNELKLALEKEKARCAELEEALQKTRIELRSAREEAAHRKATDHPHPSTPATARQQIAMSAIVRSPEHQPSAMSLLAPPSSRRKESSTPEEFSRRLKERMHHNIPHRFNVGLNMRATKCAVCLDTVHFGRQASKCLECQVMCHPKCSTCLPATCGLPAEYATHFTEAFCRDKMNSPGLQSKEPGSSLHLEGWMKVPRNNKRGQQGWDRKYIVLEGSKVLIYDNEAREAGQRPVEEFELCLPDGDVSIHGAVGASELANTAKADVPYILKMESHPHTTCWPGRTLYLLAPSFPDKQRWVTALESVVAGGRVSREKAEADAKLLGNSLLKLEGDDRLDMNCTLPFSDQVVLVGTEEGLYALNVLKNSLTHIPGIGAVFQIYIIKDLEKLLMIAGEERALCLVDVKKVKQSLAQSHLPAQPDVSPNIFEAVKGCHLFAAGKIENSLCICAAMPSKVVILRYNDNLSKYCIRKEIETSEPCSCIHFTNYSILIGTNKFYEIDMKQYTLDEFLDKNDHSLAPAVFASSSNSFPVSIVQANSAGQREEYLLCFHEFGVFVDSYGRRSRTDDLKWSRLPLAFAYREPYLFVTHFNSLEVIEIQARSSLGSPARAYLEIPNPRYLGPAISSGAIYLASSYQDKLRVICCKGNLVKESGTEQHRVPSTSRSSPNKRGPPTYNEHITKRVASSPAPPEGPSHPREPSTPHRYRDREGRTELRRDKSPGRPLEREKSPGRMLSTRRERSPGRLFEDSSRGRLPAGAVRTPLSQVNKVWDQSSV
UniProt Q01097, residues 27-1482: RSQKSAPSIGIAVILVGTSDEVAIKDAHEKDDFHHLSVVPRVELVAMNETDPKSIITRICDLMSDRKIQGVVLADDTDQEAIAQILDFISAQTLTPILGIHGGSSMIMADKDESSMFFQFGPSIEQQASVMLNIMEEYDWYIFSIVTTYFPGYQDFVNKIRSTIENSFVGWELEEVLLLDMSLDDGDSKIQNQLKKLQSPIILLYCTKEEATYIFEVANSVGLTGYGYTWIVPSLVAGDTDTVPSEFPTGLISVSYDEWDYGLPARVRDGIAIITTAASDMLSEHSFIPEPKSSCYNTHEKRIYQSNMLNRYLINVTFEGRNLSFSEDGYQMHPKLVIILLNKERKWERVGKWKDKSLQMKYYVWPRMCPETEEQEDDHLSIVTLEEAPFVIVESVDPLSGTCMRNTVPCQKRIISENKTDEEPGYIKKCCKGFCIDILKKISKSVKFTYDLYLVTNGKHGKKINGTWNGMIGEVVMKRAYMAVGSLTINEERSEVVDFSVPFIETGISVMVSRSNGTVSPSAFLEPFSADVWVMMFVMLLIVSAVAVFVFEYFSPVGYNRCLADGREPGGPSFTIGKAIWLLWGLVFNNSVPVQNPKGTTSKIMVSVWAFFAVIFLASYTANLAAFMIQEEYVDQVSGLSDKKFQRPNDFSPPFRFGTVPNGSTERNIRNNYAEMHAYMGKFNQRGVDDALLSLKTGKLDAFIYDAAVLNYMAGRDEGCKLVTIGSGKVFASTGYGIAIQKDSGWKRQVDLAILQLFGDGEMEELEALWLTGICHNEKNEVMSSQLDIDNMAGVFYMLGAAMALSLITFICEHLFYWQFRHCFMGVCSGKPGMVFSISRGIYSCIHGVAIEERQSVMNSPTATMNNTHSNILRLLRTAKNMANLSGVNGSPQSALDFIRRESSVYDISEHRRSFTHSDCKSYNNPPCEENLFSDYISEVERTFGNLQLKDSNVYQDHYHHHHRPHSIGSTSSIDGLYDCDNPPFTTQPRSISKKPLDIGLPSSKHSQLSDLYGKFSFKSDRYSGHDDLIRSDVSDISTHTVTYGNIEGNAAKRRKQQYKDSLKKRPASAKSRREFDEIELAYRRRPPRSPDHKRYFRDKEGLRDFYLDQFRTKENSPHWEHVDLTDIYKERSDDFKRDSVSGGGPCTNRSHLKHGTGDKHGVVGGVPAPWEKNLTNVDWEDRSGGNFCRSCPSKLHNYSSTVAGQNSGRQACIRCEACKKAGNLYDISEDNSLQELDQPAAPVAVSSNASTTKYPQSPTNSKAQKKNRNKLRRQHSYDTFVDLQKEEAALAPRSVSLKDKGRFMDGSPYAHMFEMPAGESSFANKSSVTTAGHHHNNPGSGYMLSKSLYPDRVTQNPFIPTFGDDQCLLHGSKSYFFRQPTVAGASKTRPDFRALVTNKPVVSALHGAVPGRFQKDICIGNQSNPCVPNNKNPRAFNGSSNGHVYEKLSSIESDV

T1: p140Cap (mouse (endogenous in synaptosomes of the telencephalon)) (UniProt Q9QWI6)
T1 sequence: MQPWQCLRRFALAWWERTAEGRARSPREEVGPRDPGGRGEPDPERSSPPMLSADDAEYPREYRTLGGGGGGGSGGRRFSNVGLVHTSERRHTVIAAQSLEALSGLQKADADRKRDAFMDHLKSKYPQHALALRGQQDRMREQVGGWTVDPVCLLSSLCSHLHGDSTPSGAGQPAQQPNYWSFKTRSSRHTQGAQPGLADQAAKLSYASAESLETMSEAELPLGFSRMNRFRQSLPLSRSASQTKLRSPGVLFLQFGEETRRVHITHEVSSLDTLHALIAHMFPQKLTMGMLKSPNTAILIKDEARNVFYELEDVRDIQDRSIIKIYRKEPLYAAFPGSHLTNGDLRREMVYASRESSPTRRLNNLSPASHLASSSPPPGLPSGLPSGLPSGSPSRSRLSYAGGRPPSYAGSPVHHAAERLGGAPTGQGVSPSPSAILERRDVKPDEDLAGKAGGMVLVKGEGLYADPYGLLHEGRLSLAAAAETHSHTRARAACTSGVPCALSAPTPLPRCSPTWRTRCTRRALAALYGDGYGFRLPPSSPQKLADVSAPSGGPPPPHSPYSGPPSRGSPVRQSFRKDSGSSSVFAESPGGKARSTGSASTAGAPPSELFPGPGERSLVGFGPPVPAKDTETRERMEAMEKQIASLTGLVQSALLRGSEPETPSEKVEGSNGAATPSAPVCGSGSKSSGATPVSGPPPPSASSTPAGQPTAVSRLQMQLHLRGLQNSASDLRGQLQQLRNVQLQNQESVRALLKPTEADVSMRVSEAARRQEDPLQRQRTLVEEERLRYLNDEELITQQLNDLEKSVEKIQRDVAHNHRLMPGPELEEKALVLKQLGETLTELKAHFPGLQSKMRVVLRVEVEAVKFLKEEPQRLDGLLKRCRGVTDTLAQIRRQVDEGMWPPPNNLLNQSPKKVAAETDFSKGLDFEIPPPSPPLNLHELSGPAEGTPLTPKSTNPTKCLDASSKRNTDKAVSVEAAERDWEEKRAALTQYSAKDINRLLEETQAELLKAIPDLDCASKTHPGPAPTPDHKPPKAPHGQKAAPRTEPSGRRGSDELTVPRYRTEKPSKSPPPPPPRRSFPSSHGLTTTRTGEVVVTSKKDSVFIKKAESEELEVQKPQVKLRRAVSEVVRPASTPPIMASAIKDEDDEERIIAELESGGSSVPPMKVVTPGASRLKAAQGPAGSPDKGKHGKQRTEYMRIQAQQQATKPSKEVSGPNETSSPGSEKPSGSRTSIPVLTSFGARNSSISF


Target: T1, p140Cap (mouse (endogenous in synaptosomes of the telencephalon))
Test: affinity purification with mass spectrometry; p140Cap immunoprecipitated with Mab 2A8 cross-linked to protein G Dynabeads from 6 mg crude synaptosomal extract of WT mice (p140Cap KO as negative control), 2 h at 4°C, lysis buffer 150 mM NaCl, 50 mM Tris pH 7, 1% NP-40; label-free nanoLC-MS/MS, iBAQ, FDR 1% and at least 4-fold enrichment over KO

Row | Molecule | binding
1 | CACNA1H (from UniProt O88427 1-2365) | no binding
2 | CACNA2D1 | binds
3 | CACNB2 (from UniProt Q8CC27 1-655) | no binding
4 | CNKSR2 (CNK2) (from UniProt Q80YA9 1-1032) | binds
5 | Camk2a (from UniProt P11798 1-478) (enzyme) | binds
6 | Grin2a (from UniProt P35436 23-1464) (receptor) | binds
7 | Shank3 (from UniProt Q4ACU6 1-1730) | binds
8 | Homer1 (protein, UniProt Q9Z2Y3 1-366) MGEQPIFSTRAHVFQIDPNTKKNWVPTSKHAVTVSYFYDSTRNVYRIISLDGSKAIINSTITPNMTFTKTSQKFGQWADSRANTVYGLGFSSEHHLSKFAEKFQEFKEAARLAKEKSQEKMELTSTPSQESAGGDLQSPLTPESINGTDDERTPDVTQNSEPRAEPTQNALPFPHSAGDRTQALSHASSAISKHWEAELATLKGNNAKLTAALLESTANVKQWKQQLAAYQEEAERLHKRVTELECVSSQANAVHSHKTELNQTVQELEETLKVKEEEIERLKQEIDNARELQEQRDSLTQKLQEVEIRNKDLEGQLSDLEQRLEKSQNEQEAFRSNLKTLLEILDGKIFELTELRDNLAKLLECS | binds
9 | Cadm1/Syncam (protein, UniProt Q8R5M8 48-456) QNLFTKDVTVIEGEVATISCQVNKSDDSVIQLLNPNRQTIYFRDFRPLKDSRFQLLNFSSSELKVSLTNVSISDEGRYFCQLYTDPPQESYTTITVLVPPRNLMIDIQKDTAVEGEEIEVNCTAMASKPATTIRWFKGNKELKGKSEVEEWSDMYTVTSQLMLKVHKEDDGVPVICQVEHPAVTGNLQTQRYLEVQYKPQVHIQMTYPLQGLTREGDAFELTCEAIGKPQPVMVTWVRVDDEMPQHAVLSGPNLFINNLNKTDNGTYRCEASNIVGKAHSDYMLYVYDPPTTIPPPTTTTTTTTTTTTTILTIITDTTATTEPAVHDSRAGEEGTIGAVDHAVIGGVVAVVVFAMLCLLIILGRYFARHKGTYFTHEAKGADDAADADTAIINAEGGQNNSEEKKEYFI | binds
10 | FRMD4A (protein, UniProt Q8BIE6 1-1020) MTEGRRCQVHLLDDRKLELLVQPKLLAKELLDLVASHFNLKEKEYFGIAFTDETGHLNWLQLDRRVLEHDFPKKSGPVVLYFCVRFYIESISYLKDNATIELFFLNAKSCIYKELIDVDSEVVFELASYILQEAKGDFSSNEVVRSDLKKLPALPTQALKEHPSLAYCEDRVIEYYKKLNGQTRGQAIVNYMSIVESLPTYGVHYYAVKDKQGIPWWLGLSYKGIFQYDYHDKVKPRKIFQWRQLENLYFREKKFSVEVHDPRRASVTRRTFGHSGIAVHTWYACPALIKSIWAMAISQHQFYLDRKQSKSKIHAARSLSEIAIDLTETGTLKTSKLANMGSKGKIISGSSGSLLSSGSQESDSSQSAKKDMLAALKSRQEALEETLRQRLEELKRLCLREAELTGKLPVEYPLDPGEEPPIVRRRIGTAFKLDEQKILPKGEEAELERLEREFAIQSQITEAARRLASDPNVSKKLKKQRKTSYLNALKKLQEIENAINENRIKSGKKPTQRASLVIDDGNIASEDSSLSDALVLEDEDSQVTSTISPLQSPHKGLPPRPPSSHNRPPPPQSLEGLRQLHYHRTDYDKSPLKPKMWSESSLDEPYEKVKKRSSHGHSSSHKRFPSTGSCTEAGVSSSLQNSPIRSLPHWNSQSSMPSTPDLRVRSPHYVHSTRSVDISPTRLHSLALHFRHRSSSLESQGKLLGSENDTGSPDFYTPRTRSSNGSDPMDDCSSCTSHSSSEHYYPAQMNANYSTLAEDSPSKARQRQRQRQRAAGALGSASSGSMPNLAARSGAASTGGGVYLHSQSQPSSQYRIKEYPLYIEGSATPVVVRSLESDQEGHYSVKAQFKTSNSYTAGGLFKESWRGGGDEGDAGRLTPSRSQILRTPSLGRDGAHDKGSGRAAVSDELRQWYQRSTASHKEHSRLSHTSSTSSDSGSQYSTSSQSTFVAHSRVTRMPQMCKATSAALPQSQRSSTPSSEIGATPPSSPHHILTWQTGEATENSPIMDGSESPTHQSTDE | binds

Other lines, results leading:

Row | binding | Molecule
11 | binds | CACNA1A (from UniProt P97445 1-2368)
12 | no binding | CACNA1C (from UniProt Q01815 1-2139)
13 | binds | CACNA2D2
14 | binds | CTNNB1 (β-catenin) (from UniProt Q02248 1-781)
15 | binds | Citron-N (from UniProt P49025-3 1-1597)
16 | binds | Gria3 (from UniProt Q9Z2W9 23-888) (receptor)
17 | binds | Grin2b (from UniProt Q01097 27-1482) (receptor)
18 | binds | ROGDI (from UniProt Q3TDK6 1-287)
19 | binds | TRANK1 (from UniProt Q8BV79 1-2999)
20 | binds | Shank2 (protein, UniProt Q80Z38 1-1476) MKSLLNAFTKKEVPFREAPAYSNRRRRPPNTLAAPRVLLRSNSDNNLNAGAPEWAVCSAATSHRSLSPQLLQQTPSKPDGATKSLGSYTPGPRSRSPSLNRLGGTAEDGKRTQPHWHVGSPFTPGANKDSLSTFEYPGPRRKLYSAVPGRLFVAVKPYQPQVDGEIPLHRGDRVKVLSIGEGGFWEGSARGHIGWFPAECVEEVQCKPRDSQAETRADRSKKLFRHYTVGSYDSFDAASDCIIEDKTVVLQKKDNEGFGFVLRGAKADTPIEEFTPTPAFPALQYLESVDEGGVAWQAGLRTGDFLIEVNNENVVKVGHRQVVNMIRQGGNHLILKVVTVTRNLDPDDTARKKAPPPPKRAPTTALTLRSKSMTAELEELGLSLVDKASVRKKKDKPEEIVPASKPSRTAENVAIESRVATIKQRPTSRCFPAASDVNSVYERQGIAVMTPTVPGSPKGPFLGLPRGTMRRQKSIDSRIFLSGITEEERQFLAPPMLKFTRSLSMPDTSEDIPPPPQSVPPSPPPPSPTTYNCPRSPTPRVYGTIKPAFNQNPVVAKVPPATRSDTVATMMREKGMFYRRELDRFSLDSEDVYSRSPAPQAAFRTKRGQMPENPYSEVGKIASKAVYVPAKPARRKGVLVKQSNVEDSPEKTCSIPIPTIIVKEPSTSSSGKSSQGSSMEIDPQATEPGQLRPDDSLTVSSPFAAAIAGAVRDREKRLEARRNSPAFLSTDLGDEDVGLGPPAPRMQASKFPEEGGFGDEDETEQPLLPTPGAAPRELENHFLGGGEAGAQGEAGGPLSSTSKAKGPESGPAAPLKSSSPAGPENYVHPLTGRLLDPSSPLALALSARDRAMQESQQGHKGEAPKADLNKPLYIDTKMRPSVESGFPPVTRQNTRGPLRRQETENKYETDLGKDRRADDKKNMLINIVDTAQQKSAGLLMVHTVDVPMAGPPLEEEEDREDGDTKPDHSPSTVPEGVPKTEGALQISAAPEPAVAPGRTIVAAGSVEEAVILPFRIPPPPLASVDLDEDFLFTEPLPPPLEFANSFDIPDDRAASVPALADLVKQKKNDTSQPPTLNSSQPANSTDSKKPAGISNCLPSSFLPPPESFDAVTDSGIEEVDSRSSSDHHLETTSTISTVSSISTLSSEGGESMDTCTVYADGQAFVVDKPPVPPKPKMKPIVHKSNALYQDTLPEEDTDGFVIPPPAPPPPPGSAQAGVAKVIQPRTSKLWGDVPEVKSPILSGPKANVISELNSILQQMNRGKSVKPGEGLELPVGAKSANLAPRSPEVMSTVSGTRSTTVTFTVRPGTSQPITLQSRPPDYESRTSGPRRAPSPVVSPTELSKEILPTPPPPSATAASPSPTLSDVFSLPSQSPAGDLFGLNPAGRSRSPSPSILQQPISNKPFTTKPVHLWTKPDVADWLESLNLGEHKETFMDNEIDGSHLPNLQKEDLIDLGVTRVGHRMNIERALKQLLDR

No constants are given. Whether binding was seen depends on the method and setting. Binding seen in cells or lysates may run through a third protein. These calls come from enrichment with a bait or labelling near it, and not all partners need be listed. A no says only that the protein was not detected with the bait.
